Measured values from the supplement of paper PMC12067093, “Discovery and optimisation of a covalent ligand for TRIM25 and its application to targeted protein ubiquitination” (Chemical Science, 2025).
The list shows a part of the results.

Amino acid sequences for entries named in this document (tags omitted). A change or cut given only in a name is not applied to a line headed by its entry.
UniProt Q01469, whole entry, looked up: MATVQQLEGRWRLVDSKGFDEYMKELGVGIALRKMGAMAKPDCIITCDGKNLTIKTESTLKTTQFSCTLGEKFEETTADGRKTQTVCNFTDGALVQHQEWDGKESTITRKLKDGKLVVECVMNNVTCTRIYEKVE
UniProt O95571: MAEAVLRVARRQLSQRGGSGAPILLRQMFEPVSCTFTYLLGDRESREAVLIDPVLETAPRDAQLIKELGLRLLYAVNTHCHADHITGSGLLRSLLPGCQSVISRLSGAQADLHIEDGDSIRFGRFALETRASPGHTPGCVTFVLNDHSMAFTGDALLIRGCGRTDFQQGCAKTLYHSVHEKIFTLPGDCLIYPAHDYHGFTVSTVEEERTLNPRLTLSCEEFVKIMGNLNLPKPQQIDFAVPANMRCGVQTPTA
UniProt Q15910, whole entry, looked up: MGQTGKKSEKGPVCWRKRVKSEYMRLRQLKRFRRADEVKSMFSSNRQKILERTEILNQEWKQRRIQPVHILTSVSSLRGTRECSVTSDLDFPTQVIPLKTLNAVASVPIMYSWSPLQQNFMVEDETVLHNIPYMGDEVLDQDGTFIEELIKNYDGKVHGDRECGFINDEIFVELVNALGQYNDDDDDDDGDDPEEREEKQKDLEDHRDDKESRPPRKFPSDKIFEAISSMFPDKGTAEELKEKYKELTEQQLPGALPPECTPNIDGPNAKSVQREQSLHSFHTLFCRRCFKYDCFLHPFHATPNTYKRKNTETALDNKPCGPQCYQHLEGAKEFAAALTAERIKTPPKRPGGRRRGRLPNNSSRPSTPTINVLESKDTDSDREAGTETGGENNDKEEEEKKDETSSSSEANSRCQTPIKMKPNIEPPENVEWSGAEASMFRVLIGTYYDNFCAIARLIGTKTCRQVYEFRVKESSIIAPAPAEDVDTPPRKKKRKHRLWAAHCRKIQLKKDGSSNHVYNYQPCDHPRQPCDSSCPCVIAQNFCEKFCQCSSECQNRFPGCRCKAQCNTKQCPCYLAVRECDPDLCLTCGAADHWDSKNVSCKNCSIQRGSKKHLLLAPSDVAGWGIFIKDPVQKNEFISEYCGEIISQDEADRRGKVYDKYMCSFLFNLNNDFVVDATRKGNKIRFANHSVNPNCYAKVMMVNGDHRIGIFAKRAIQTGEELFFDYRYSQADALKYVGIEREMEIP
UniProt Q5RKV6, whole entry, looked up: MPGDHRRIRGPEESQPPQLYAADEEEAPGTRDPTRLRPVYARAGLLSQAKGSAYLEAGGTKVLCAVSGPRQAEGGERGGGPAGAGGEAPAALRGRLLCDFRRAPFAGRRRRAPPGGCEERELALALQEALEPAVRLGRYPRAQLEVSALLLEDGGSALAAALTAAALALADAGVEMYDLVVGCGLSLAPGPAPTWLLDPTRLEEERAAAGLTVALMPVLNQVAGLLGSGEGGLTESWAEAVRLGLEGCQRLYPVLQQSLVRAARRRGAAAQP
UniProt Q9BSJ8: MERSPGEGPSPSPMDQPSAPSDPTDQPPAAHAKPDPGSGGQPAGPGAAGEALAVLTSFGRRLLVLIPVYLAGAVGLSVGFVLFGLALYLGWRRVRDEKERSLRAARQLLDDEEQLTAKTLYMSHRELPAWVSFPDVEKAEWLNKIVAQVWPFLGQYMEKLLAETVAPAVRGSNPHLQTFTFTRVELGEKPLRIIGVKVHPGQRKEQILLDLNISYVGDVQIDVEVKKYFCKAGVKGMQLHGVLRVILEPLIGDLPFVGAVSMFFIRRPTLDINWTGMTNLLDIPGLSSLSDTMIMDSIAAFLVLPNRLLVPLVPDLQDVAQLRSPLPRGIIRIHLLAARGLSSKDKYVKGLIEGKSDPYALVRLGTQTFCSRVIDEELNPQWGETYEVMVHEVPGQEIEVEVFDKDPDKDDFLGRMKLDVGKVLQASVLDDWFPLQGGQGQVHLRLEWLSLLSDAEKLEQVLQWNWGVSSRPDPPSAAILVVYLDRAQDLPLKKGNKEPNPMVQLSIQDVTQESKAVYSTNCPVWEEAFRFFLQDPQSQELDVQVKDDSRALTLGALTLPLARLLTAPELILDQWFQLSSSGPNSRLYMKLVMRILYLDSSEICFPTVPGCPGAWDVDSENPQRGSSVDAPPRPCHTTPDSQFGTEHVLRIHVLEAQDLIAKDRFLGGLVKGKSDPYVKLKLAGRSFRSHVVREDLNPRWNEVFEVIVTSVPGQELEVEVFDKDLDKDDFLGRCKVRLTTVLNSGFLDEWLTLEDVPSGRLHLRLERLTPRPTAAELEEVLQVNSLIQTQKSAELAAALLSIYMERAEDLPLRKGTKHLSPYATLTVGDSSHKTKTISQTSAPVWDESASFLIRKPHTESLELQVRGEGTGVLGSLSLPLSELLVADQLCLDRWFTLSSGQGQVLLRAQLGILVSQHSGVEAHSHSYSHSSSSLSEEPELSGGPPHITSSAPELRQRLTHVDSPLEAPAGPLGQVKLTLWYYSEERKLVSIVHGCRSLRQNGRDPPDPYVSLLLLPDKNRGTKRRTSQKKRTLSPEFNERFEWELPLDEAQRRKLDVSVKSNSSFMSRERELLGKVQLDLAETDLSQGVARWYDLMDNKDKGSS
UniProt Q96B26, whole entry, looked up: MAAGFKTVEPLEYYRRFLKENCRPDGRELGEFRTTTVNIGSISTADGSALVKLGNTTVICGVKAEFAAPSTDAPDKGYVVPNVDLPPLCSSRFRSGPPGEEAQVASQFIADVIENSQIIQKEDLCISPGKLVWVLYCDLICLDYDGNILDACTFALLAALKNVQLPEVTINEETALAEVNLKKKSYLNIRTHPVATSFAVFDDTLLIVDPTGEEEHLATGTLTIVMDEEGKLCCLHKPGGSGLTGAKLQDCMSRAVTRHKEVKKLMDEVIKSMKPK
UniProt Q96EK7: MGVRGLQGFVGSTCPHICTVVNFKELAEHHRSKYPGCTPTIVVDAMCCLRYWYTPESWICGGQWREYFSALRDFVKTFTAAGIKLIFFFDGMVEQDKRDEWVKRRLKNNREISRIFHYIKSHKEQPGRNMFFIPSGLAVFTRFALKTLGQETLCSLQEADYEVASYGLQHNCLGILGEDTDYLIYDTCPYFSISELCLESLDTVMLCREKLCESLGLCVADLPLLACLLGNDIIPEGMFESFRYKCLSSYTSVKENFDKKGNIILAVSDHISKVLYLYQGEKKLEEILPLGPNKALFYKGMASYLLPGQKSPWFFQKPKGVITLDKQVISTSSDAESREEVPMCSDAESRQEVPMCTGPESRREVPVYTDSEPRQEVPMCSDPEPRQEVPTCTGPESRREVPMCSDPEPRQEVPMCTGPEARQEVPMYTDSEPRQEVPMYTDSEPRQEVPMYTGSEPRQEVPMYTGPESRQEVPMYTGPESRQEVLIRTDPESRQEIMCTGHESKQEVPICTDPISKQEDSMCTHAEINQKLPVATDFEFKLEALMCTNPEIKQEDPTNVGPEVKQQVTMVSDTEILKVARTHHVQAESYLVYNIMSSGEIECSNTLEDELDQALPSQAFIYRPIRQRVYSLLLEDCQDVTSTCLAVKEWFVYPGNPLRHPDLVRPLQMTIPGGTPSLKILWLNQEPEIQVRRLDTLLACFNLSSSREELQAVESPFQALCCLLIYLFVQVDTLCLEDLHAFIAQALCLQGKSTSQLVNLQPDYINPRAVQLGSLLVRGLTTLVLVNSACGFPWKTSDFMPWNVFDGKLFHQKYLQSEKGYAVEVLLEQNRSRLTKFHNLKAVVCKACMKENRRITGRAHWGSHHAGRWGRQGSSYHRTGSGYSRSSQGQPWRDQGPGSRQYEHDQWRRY
UniProt Q2NKX8: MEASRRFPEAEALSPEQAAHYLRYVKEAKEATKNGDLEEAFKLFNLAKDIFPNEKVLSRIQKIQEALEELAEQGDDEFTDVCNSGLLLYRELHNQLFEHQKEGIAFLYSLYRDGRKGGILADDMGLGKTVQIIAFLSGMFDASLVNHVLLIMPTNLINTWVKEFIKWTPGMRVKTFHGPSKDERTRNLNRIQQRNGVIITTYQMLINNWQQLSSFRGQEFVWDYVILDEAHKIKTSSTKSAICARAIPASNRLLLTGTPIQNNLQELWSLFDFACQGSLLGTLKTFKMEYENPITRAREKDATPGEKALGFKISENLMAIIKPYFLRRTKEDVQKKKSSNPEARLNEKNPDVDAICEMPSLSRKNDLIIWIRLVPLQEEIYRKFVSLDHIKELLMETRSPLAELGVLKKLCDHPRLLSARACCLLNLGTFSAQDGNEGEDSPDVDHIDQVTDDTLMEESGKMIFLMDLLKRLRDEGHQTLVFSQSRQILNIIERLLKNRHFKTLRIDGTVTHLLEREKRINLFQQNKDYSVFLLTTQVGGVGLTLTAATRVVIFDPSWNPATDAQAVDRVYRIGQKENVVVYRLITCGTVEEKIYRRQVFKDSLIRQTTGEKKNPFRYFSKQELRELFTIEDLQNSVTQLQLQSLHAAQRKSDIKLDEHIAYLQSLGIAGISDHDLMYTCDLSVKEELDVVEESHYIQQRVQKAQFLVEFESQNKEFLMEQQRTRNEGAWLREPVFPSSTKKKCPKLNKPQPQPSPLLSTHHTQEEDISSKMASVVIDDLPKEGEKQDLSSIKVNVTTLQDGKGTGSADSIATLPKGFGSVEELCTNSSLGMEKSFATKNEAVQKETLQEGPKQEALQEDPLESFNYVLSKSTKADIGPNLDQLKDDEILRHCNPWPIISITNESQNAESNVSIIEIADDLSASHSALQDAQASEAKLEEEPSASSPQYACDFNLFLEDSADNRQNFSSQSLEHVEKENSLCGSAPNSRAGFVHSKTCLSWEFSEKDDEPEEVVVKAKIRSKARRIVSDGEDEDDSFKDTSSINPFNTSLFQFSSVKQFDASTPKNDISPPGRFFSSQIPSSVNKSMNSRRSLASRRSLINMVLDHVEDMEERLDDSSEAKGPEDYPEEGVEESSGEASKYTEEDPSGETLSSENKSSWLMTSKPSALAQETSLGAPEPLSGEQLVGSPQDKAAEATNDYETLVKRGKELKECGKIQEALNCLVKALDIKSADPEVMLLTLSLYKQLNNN
UniProt Q96KP1: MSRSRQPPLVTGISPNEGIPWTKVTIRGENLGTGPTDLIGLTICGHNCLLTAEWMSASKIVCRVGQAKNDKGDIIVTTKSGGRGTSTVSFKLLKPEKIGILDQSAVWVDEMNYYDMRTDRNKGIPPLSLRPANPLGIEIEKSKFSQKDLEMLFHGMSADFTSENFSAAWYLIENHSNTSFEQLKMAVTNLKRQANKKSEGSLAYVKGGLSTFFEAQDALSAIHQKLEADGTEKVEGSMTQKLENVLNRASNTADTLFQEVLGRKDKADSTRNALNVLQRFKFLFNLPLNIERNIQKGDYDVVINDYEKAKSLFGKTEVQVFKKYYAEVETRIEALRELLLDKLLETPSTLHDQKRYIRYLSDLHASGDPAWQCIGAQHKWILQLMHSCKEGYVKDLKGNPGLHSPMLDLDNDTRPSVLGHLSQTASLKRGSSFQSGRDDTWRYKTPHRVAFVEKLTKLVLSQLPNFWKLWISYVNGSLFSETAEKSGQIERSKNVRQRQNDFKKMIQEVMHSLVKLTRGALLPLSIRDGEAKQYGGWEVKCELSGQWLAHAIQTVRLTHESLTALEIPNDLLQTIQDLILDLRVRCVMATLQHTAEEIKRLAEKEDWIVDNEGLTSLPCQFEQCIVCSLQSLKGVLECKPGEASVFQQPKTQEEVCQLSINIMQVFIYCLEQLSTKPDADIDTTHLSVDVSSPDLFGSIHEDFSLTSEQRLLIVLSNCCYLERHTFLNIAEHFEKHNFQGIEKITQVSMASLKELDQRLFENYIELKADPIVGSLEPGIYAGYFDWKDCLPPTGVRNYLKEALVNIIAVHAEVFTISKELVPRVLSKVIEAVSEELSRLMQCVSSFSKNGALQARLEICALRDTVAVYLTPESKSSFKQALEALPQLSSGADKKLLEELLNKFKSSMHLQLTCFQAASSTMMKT
UniProt Q9UNN5: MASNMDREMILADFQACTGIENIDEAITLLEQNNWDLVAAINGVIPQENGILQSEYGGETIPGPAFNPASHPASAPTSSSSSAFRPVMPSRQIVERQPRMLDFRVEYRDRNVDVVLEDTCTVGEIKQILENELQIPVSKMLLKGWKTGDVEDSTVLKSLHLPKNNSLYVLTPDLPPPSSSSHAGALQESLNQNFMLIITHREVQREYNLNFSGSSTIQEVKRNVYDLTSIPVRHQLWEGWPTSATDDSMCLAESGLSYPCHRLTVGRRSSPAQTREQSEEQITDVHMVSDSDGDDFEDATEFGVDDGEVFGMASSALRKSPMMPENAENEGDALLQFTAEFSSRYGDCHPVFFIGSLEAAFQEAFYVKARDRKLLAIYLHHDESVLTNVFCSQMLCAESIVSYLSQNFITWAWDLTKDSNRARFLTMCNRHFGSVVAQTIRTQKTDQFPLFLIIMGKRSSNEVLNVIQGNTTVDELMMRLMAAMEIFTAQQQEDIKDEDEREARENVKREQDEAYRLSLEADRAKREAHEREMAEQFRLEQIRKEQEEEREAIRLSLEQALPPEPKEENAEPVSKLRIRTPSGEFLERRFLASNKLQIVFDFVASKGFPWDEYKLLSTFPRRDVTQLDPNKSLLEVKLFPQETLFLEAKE

Compound: CC1Cc2ccccc2N1C(=O)C1CCCN(C1)C(=O)CCl (mixture of isomers) [TRIM25 ligand 11 (diastereomer mixture)]
Assay: probe-labelled cysteine peptide fold change vs DMSO (competition) (log2 fold change); higher = less target engagement (more negative = stronger competition)
Conditions: THP-1, incubation time: 4 h
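Further: competitive chemoproteomic profiling in live THP-1 cells with an iodoacetamide desthiobiotin (IA-DTB) probe, comparing probe-labelled peptide intensities in compound-treated cells against DMSO-treated controls.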

Target	probe-labelled cysteine peptide fold change (10 µM)	probe-labelled cysteine peptide fold change (50 µM)
ERCC2_P18074_116_NLCIHPEVTPLR (UniProt P18074)	0.0662	0.0279
FABP5_Q01469_43+47_KMGAMAKPDCIITCDGK (UniProt Q01469)	-0.248	-0.398
EXOC4_Q96A65_54_CDRDLDELIVQHYTELTTAIR (UniProt Q96A65)	0.011	-0.155
FAM126A_Q9BYI3_371_AASSTSQSGLSNSSHNCSNKPSIGK (UniProt Q9BYI3)	0.161	-0.226
ETFA_P13804_53_LGGEVSCLVAGTK (UniProt P13804)	-0.00012	-0.00429
EXOSC10_Q01780_555_IAEELPKEPQGIIACCNPVPPLVR (UniProt Q01780)	-0.0902	-0.263
EXOSC9_Q06265_45+46_ISFGTDYGCCIVELGK (UniProt Q06265)	-0.00213	0.172
ERP44_Q9BS26_318_TPADCPVIAIDSFR (UniProt Q9BS26)	-0.0103	0.0027
ETHE1_O95571_219_LTLSCEEFVK (UniProt O95571)	-0.0343	-0.0479
EXOSC10_Q01780_288_PQPQLYRPIEETPCHFISSLDELVELNEK (UniProt Q01780)	0.279	0.148
EXTL3_O43909_400_LDQVLVEFTCK (UniProt O43909)	0.0434	0.174
EZH2_Q15910_83_ECSVTSDLDFPTQVIPLK (UniProt Q15910)	0.107	0.243
FAM120A_Q9NZB2_53_LLVDADNCLHR (UniProt Q9NZB2)	0.146	0.147
FAHD1_Q6P587_129_SFTASCPVSAFVPK (UniProt Q6P587)	0.016	-0.0515
FAAP100_Q0VG06_309_TEPQAAEAAENFLPDEDVHCDCLVAFGHHGR (UniProt Q0VG06)	-0.157	0.0565
EXT2_Q93063_85_LPADSPIPERGDLSCR (UniProt Q93063)	-0.113	0.0474
EXOSC6_Q5RKV6_117_RAPPGGCEER (UniProt Q5RKV6)	-0.0462	-0.267
ESYT1_Q9BSJ8_995_LVSIVHGCR (UniProt Q9BSJ8)	0.00116	0.0422
ERLIN2_O94905_128_IHHELNQFCSVHTLQEVYIELFDQIDENLK (UniProt O94905)	0.13	-0.0608
EXOC7_Q9UPT5_83_TLSCLDHVISYYHVASDTEK (UniProt Q9UPT5)	0.0152	-0.177
EXOSC8_Q96B26_233+234_LCCLHKPGGSGLTGAK (UniProt Q96B26)	-0.017	-0.115

Quoted from the listing:
Under probe-labelled cysteine peptide fold change (50 µM), ETHE1_O95571_219_LTLSCEEFVK (UniProt O95571) is entered as -0.0479
Under probe-labelled cysteine peptide fold change (50 µM), EZH2_Q15910_83_ECSVTSDLDFPTQVIPLK (UniProt Q15910) is entered as 0.243
Under probe-labelled cysteine peptide fold change (50 µM), ESYT1_Q9BSJ8_995_LVSIVHGCR (UniProt Q9BSJ8) is entered as 0.0422

The list goes on:

Target	probe-labelled cysteine peptide fold change (10 µM)	probe-labelled cysteine peptide fold change (50 µM)
ESYT2_A0FGR8_210_HMWPFICQFIEK (UniProt A0FGR8)	0.0844	0.0497
FAM120B_Q96EK7_511_QEVPICTDPISK (UniProt Q96EK7)	0.151	-0.0572
FAM120B_Q96EK7_356_QEVPMCTGPESR (UniProt Q96EK7)	-0.134	-0.365
ESD_P10768_28_VFEHDSVELNCK (UniProt P10768)	0.0669	-0.217
EXOSC6_Q5RKV6_117_APPGGCEER (UniProt Q5RKV6)	-0.115	-0.185
ERCC4_Q92889_803_ILWCPSPHATAELFEELK (UniProt Q92889)	-0.0243	0.0315
EXOC5_O00471_254_NDIFEDAGILCQR (UniProt O00471)	0.0965	0.0639
FAM111B_Q6SJ93_183_QCENPNMECILFHVVAIGR (UniProt Q6SJ93)	0.00298	0.0622
EXOC6B_Q9Y2D4_32_EIESTDTACIGPTLR (UniProt Q9Y2D4)	0.0089	-0.249
ERI1_Q8IV48_243_FLNIQCQLSR (UniProt Q8IV48)	0.0207	0.0892
ESYT2_A0FGR8_181_ACDLPAWVHFPDTERAEWLNK (UniProt A0FGR8)	-0.246	-0.0526
FABP5_Q01469_87_KTQTVCNFTDGALVQHQEWDGK (UniProt Q01469)	-0.236	-0.168
ERCC6L_Q2NKX8_1222_IQEALNCLVK (UniProt Q2NKX8)	0.044	-0.208
FAM111B_Q6SJ93_212_LCIYALK (UniProt Q6SJ93)	-0.05	-0.0141
ERCC4_Q92889_560_EPLTIIHPLLGCSDPYALTR (UniProt Q92889)	0.0503	-0.316
ETFB_P38117_42_HSMNPFCEIAVEEAVR (UniProt P38117)	0.00576	-0.0353
ERI3_O43414_313_GLSLQHIGRPHSGIDDCK (UniProt O43414)	0.00506	-0.0155
EXOSC7_Q15024_189_DIELSDDPYDCIR (UniProt Q15024)	0.111	0.141
EXOSC8_Q96B26_60_LGNTTVICGVK (UniProt Q96B26)	0.0322	0.0231
FAM111B_Q6SJ93_351_NYYFCSLPR (UniProt Q6SJ93)	-0.00273	0.026
EXOC4_Q96A65_957_EIICEQAAIK (UniProt Q96A65)	-0.0169	-0.0542

Target	probe-labelled cysteine peptide fold change (10 µM)	probe-labelled cysteine peptide fold change (50 µM)
ESD_P10768_176+181_SVSAFAPICNPVLCPWGK (UniProt P10768)	-0.0306	-0.166
FAM120B_Q96EK7_499_QEIMCTGHESK (UniProt Q96EK7)	0.159	-0.218
EXOC2_Q96KP1_388_WILQLMHSCK (UniProt Q96KP1)	-0.204	-0.28
ERLEC1_Q96DZ1_113_QSSCSYR (UniProt Q96DZ1)	0.0884	0.179
ERGIC3_Q9Y282_155_CCNTCEDVR (UniProt Q9Y282)	0.507	-0.197
FAF1_Q9UNN5_250+260_HQLWEGWPTSATDDSMCLAESGLSYPCHR (UniProt Q9UNN5)	-0.487	-0.516
EXOSC10_Q01780_93_VMQYHGCR (UniProt Q01780)	-0.0603	-0.0302
FAM114A2_Q9NRY5_438_EFTTCLTTAGVK (UniProt Q9NRY5)	0.0981	0.0759
FAHD1_Q6P587_112_DVQDECK (UniProt Q6P587)	-0.0953	-0.0525
EVL_Q9UI08-2_9_ATSEQSICQAR (UniProt Q9UI08)	0.254	0.305
ESYT1_Q9BSJ8_635_GSSVDAPPRPCHTTPDSQFGTEHVLR (UniProt Q9BSJ8)	0.0884	0.00472
ERP29_P30040_157_GQGVYLGMPGCLPVYDALAGEFIR (UniProt P30040)	0.0131	-0.246
ERCC2_P18074_588_YQEACENGR (UniProt P18074)	0.15	0.0126
FAM102B_Q5T8I3_64_FSFMCK (UniProt Q5T8I3)	0.0741	0.225
EXOC5_O00471_675_QVCSGEQLANLDK (UniProt O00471)	0.0894	0.0771
ESCO2_Q56NI9_389_HFGATVCK (UniProt Q56NI9)	-0.00137	0.0314
ERO1A_Q96HE7_94_RPCPFWNDISQCGR (UniProt Q96HE7)	0.149	0.12
ESD_P10768_56_CPALYWLSGLTCTEQNFISK (UniProt P10768)	0.134	0.228
ERLIN1_O75477_310_IYFGSNIPNMFVDSSCALK (UniProt O75477)	0.102	-0.23
F11R_Q9Y624_50_LSCAYSGFSSPR (UniProt Q9Y624)	-0.0813	0.149
EXOC1_Q9NV70_36_NCFLCATVTTERPVQVK (UniProt Q9NV70)	0.101	0.0465

For reference, some entries already given:
Target	probe-labelled cysteine peptide fold change (10 µM)	probe-labelled cysteine peptide fold change (50 µM)
FAF1_Q9UNN5_250+260_HQLWEGWPTSATDDSMCLAESGLSYPCHR (UniProt Q9UNN5)	-0.487	-0.516
EXOSC10_Q01780_93_VMQYHGCR (UniProt Q01780)	-0.0603	-0.0302

More entries follow:

Target	probe-labelled cysteine peptide fold change (10 µM)	probe-labelled cysteine peptide fold change (50 µM)
EXOC2_Q96KP1_859_LEICALR (UniProt Q96KP1)	-0.0264	-0.00412
ESD_P10768_158_MSIFGHSMGGHGALICALK (UniProt P10768)	-0.0198	-0.507
ETFA_P13804_155_TIYAGNALCTVK (UniProt P13804)	0.0296	-0.008
FAH_P16930_193_PMGQMKPDDSKPPVYGACK (UniProt P16930)	-0.0322	-0.0762
EXOSC9_Q06265_158_VDLHLLNHDGNIIDAASIAAIVALCHFR (UniProt Q06265)	0.16	0.256
ETS1_P14921_31_VDLELFPSPDMECADVPLLTPSSK (UniProt P14921)	0.328	0.177
FADD_Q13158_168_SCQMNLVADLVQEVQQAR (UniProt Q13158)	-0.127	-0.425
FAM122A_Q96E09_193_SQSPINCIRPSVLGPLK (UniProt Q96E09)	-0.26	-0.21
FAM120B_Q96EK7_700_RLDTLLACFNLSSSR (UniProt Q96EK7)	0.111	0.00986
ERCC6L_Q2NKX8_356_NPDVDAICEMPSLSR (UniProt Q2NKX8)	-0.0361	-0.23
EXOSC10_Q01780_612_LENVLFGPHDCSHAPPDGYPIIPTSGSVPVQK (UniProt Q01780)	0.353	0.274
EXOC6_Q8TAG9_561_KPHIGLTELVQIIINTTHLEQACK (UniProt Q8TAG9)	-0.0504	0.134
ERF_P50548_492_WSEDCR (UniProt P50548)	0.189	0.137
EXOSC10_Q01780_327_SFLGLTCLMQISTR (UniProt Q01780)	0.12	0.268
EXOC1_Q9NV70_304_GIEACTNAADALLQCMNVALRPGHDLLLAVK (UniProt Q9NV70)	0.0427	0.131
EXOSC3_Q9NQT5_257_TIQQTLILANILEACEHMTSDQR (UniProt Q9NQT5)	0.115	0.0197
ERP44_Q9BS26_189_VANILHDDCAFLSAFGDVSK (UniProt Q9BS26)	-0.259	0.212
ERO1B_Q86YB8_130_ELEDCEQANK (UniProt Q86YB8)	-0.117	-0.152
FAM111A_Q96PZ2_36_EQQNNCSTSLMR (UniProt Q96PZ2)	-0.0357	-0.0911
ESYT1_Q9BSJ8_995_KLVSIVHGCR (UniProt Q9BSJ8)	0.0752	-0.0351
ETFB_P38117_66_EVIAVSCGPAQCQETIR (UniProt P38117)	-0.0186	0.0282
